Reference: patent US11541133B2, “Treatment of cancer cells overexpressing somatostatin receptors using ocreotide derivatives chelated to radioisotopes” (RADIOMEDIX INC., priority 2017, dated 2023)
Not every detail of the peptide structures is certain; ends, links or a residue may be inferred.

What was measured:
AR42J cancer cell line = assay: Cellular uptake study in AR42J cancer cell line (FIG. 9); assay type: cell-based; conditions: 100,000 cell per well, 1.5 h at 37° C., 24 μCi/well
AR42J xenograft [1] = assay: Efficacy study in AR42J xenograft athymic nude mice, treatment cycles of two and three weeks (FIGS. 28-29); assay type: in vivo
AR42J tumors = assay: Combination therapy efficacy study with ADRUCIL in AR42J xenograft athymic nude mice (FIGS. 42-43); assay type: in vivo
Procedure: Athymic nude mice are given AR42J tumors and allowed to grow until tumors reach about 300 mm^3. Mice in treatment groups are injected with 100 μl of 15 mg/kg ADRUCIL® once weekly for a total of nine injections. 10 μCi of ^212Pb-DOTAMTATE is given at either 2 week or 3 week intervals for a total of 3 treatments. The ^212Pb-DOTAMTATE is given within 24 hours after an ADRUCIL® treatment. 10 μCi per 4.1 ng peptide is used, and the cumulative injection dose is 30 μCi. The animals are monitored daily, and calipered and weighed 3 times per week. The animals are sacrificed when termination criteria are met.

AR42J xenograft [2] = assay: Efficacy study in AR42J xenograft bearing athymic nude mice, dose ranging (FIG. 18-20); assay type: in vivo
[3] = three injections of 10 μCi (interval not given)
[4] = three injections of 10 μCi at 2-week intervals
[5] = 3×10 μCi at 2-week intervals with radiosensitizer ADRUCIL
[6] = 3×10 μCi at 2-week intervals, ^212Pb-DOTAMTATE only
[7] = 3×10 μCi at 3-week intervals, combination therapy with ADRUCIL

Row | SMILES | in vitro accumulation in the AR42J cancer cell line (AR42J cancer cell line) [% ID/mg] | median survival post cell injections (AR42J xenograft [1]; [3]) [weeks] | time by which all animals are lost (AR42J xenograft [1]; [3]) [weeks] | animals alive at 21 weeks post cell injections (AR42J xenograft [1]; [4]) [%] | median survival (AR42J xenograft [1]; [4]) [weeks] | animals alive at 21 weeks post cell injection (AR42J tumors; [5]) [%] | tumor volume at 21 weeks (all tumors under the limit of quantification) (AR42J tumors; [5]) [mm^3] | animals still remaining at 21 weeks post cell injection (AR42J tumors; [6]) [%] | median survival rate (AR42J tumors; [6]) [weeks] | median survival (AR42J tumors; [7]) [weeks] | mice still alive 21 weeks post cell injection (AR42J tumors; [7]) [%] | median survival rate (AR42J tumors; three injections of ^212Pb-DOTAMTATE only at 3-week intervals) [weeks] | median survival (AR42J xenograft [2]; 1 injection of 5 μCi) [weeks] | median survival (AR42J xenograft [2]; 1 injection of 10 μCi) [weeks] | median survival (AR42J xenograft [2]; 2 injections of 5 μCi, three weeks apart) [weeks] | median survival (AR42J xenograft [2]; 2 injections of 10 μCi, three weeks apart) [weeks] | median survival (AR42J xenograft [2]; 3×10 μCi injections, three weeks apart) [weeks]
1 | C[C@@H](O)[C@H](NC(=O)[C@@H]1CSSC[C@H](NC(=O)[C@@H](Cc2ccccc2)NC(=S)Nc2ccc(C[C@H]3CN(CC(N)=O)CCN(CC(N)=O)CCN(CC(N)=O)CCN3CC(N)=O)cc2)C(=O)N[C@@H](Cc2ccc(O)cc2)C(=O)N[C@H](Cc2c[nH]c3ccccc23)C(=O)N[C@@H](CCCCN)C(=O)N[C@@H]([C@@H](C)O)C(=O)N1)C(=O)O [^203Pb-TCMCTATE, ((4R,7S,10S,13R,16S,19R)-13-((1H-indol-3-yl)methyl)-10-(4-aminobutyl)-16-(4-hydroxybenzyl)-7-((R)-1-hydroxyethyl)-6,9,12,15,18-pentaoxo-19-((R)-3-phenyl-2-(3-(4-(((S)-1,4,7,10-tetrakis(2-amino-2-oxoethyl)-1,4,7,10-tetraazacyclododecan-2-yl)methyl)phenyl)thioureido)propanamido)-1,2-dithia-5,8,11,14,17-pentaazacycloicosane-4-carbonyl)-L-threonine chelated to M, metal not drawn] | 33.41±0.49 | – | – | – | – | – | – | – | – | – | – | – | – | – | – | – | –
2 | C[C@@H](O)[C@H](NC(=O)[C@@H]1CSSC[C@H](NC(=O)[C@@H](Cc2ccccc2)NC(=S)Nc2ccc(C[C@H]3CN(CC(N)=O)CCN(CC(N)=O)CCN(CC(N)=O)CCN3CC(N)=O)cc2)C(=O)N[C@@H](Cc2ccc(O)cc2)C(=O)N[C@H](Cc2c[nH]c3ccccc23)C(=O)N[C@@H](CCCCN)C(=O)N[C@@H]([C@@H](C)O)C(=O)N1)C(=O)O [^64Cu-TCMCTATE, metal not drawn] | 41.59±1.79 | – | – | – | – | – | – | – | – | – | – | – | – | – | – | – | –
3 | C[C@@H](O)[C@H](NC(=O)[C@@H]1CSSC[C@H](NC(=O)[C@@H](Cc2ccccc2)NC(=O)CN2CCN(CC(N)=O)CCN(CC(N)=O)CCN(CC(N)=O)CC2)C(=O)N[C@@H](Cc2ccc(O)cc2)C(=O)N[C@H](Cc2c[nH]c3ccccc23)C(=O)N[C@@H](CCCCN)C(=O)N[C@@H]([C@@H](C)O)C(=O)N1)C(=O)O [^212Pb-DOTAMTATE, ((4R,7S,10S,13R,16S,19R)-13-((1H-indol-3-yl)methyl)-10-(4-aminobutyl)-16-(4-hydroxybenzyl)-7-((R)-1-hydroxyethyl)-6,9,12,15,18-pentaoxo-19-((R)-3-phenyl-2-(2-(4,7,10-tris(2-amino-2-oxoethyl)-1,4,7,10-tetraazacyclododecan-1-yl)acetamido)propanamido)-1,2-dithia-5,8,11,14,17-pentaazacycloicosane-4-carbonyl)-L-threonine chelated to M, metal not drawn] | – | 9.1 | ≤ 11.1 | 45 | 11.9 | 85 | < 200 | 46 | 11.9 | 11.1 | 20 | 9.14 | 6.3 | 8.5 | 7.1 | 10.9 | 11.6
